From article PMC6063913
Results are given in words; binding and its absence hold for the method and conditions named. Binding seen in cells or lysates may run through a third protein. Some entries that bind do so weakly or less than the wild type.

The chains behind the UniProt entries cited, without tags or fusion partners.
UniProt P46937: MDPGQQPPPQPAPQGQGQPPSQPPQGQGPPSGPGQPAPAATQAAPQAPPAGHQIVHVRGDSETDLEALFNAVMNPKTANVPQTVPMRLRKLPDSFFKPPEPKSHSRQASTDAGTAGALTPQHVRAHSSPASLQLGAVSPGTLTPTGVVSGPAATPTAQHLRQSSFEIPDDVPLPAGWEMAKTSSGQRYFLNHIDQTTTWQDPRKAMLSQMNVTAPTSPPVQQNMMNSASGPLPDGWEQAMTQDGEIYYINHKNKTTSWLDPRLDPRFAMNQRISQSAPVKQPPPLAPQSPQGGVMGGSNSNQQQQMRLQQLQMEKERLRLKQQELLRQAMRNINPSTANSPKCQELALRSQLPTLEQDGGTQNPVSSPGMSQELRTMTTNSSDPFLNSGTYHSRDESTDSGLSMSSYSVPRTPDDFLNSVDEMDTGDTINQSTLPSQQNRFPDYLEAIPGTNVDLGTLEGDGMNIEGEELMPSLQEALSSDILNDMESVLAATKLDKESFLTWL
UniProt P42858: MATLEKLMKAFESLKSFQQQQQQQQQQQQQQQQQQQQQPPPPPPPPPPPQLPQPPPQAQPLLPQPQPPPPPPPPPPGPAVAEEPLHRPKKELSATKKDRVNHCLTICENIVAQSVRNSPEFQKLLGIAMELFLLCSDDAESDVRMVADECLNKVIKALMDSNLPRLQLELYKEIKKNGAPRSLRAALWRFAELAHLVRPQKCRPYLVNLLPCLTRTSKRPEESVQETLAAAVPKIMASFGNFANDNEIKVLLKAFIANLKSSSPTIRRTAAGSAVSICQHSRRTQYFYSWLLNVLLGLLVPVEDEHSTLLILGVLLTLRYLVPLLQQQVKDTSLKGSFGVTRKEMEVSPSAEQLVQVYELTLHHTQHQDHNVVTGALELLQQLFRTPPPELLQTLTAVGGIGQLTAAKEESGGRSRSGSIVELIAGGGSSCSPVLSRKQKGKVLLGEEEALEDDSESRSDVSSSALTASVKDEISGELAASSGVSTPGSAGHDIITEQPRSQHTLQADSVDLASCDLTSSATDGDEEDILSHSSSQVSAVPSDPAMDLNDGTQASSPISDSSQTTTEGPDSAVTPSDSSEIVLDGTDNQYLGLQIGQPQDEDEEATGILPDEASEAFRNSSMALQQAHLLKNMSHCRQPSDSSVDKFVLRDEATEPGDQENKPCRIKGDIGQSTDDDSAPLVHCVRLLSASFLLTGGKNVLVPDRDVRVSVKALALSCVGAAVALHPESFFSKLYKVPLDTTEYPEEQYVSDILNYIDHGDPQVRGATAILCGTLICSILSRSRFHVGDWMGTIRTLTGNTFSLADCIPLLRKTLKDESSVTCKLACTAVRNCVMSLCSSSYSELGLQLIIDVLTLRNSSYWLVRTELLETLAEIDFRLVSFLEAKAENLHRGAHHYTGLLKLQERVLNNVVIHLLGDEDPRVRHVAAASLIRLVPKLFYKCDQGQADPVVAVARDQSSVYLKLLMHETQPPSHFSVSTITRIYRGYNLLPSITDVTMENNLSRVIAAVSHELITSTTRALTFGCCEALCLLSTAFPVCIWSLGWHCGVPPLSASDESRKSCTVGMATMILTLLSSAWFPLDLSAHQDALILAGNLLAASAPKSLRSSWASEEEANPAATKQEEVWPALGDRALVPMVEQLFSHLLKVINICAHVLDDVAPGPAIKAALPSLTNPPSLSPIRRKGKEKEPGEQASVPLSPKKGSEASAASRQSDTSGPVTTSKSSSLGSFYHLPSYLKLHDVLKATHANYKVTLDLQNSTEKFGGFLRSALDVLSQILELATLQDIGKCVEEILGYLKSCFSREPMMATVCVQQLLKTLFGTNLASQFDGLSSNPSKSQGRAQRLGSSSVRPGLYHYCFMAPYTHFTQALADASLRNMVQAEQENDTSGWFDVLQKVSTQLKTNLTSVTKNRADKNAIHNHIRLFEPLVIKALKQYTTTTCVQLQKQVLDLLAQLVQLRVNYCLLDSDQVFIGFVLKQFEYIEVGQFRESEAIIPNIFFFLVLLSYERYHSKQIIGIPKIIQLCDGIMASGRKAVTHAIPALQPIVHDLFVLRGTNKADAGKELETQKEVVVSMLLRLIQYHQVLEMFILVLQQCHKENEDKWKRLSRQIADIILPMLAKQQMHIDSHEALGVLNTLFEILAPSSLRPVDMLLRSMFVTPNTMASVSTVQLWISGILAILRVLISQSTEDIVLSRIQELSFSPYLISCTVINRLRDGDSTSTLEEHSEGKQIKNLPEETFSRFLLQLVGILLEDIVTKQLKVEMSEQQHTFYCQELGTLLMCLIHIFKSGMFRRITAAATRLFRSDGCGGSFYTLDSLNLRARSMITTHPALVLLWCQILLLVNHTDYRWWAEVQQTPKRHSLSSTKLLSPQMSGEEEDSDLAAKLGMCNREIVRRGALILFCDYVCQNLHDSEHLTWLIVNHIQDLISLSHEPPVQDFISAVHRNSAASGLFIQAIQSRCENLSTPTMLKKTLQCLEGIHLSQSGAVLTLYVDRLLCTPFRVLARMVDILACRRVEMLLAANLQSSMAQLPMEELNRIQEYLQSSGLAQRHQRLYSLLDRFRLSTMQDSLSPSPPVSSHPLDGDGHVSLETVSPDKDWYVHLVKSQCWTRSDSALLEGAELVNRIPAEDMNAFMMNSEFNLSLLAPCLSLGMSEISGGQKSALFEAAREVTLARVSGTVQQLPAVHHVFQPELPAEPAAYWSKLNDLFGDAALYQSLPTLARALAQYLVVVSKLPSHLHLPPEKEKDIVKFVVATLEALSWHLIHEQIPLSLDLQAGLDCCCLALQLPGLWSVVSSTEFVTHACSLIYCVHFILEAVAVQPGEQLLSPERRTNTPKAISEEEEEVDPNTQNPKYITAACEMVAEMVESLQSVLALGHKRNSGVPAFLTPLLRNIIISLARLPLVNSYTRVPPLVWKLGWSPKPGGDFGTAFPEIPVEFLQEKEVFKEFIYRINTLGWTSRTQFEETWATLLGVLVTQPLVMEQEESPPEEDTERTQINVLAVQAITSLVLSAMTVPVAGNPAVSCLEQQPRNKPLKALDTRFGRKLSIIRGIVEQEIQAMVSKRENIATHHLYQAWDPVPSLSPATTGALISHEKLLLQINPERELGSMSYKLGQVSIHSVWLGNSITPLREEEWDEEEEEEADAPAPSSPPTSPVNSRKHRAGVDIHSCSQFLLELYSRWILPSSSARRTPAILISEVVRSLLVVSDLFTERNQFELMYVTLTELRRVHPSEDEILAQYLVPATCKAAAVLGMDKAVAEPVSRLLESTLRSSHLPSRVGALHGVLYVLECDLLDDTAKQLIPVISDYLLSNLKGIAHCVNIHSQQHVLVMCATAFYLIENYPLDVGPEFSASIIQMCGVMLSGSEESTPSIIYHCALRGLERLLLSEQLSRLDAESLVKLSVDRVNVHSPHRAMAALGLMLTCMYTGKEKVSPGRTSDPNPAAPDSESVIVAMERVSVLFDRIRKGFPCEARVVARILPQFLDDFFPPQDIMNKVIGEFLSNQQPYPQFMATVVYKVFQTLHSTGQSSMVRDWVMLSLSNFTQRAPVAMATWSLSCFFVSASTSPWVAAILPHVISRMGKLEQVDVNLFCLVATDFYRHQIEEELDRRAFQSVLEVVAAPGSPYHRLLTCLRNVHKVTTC

Biological target: Yes-Associated Protein (YAP) (human (endogenous in post-mortem cortex)) (UniProt P46937)
Test: co-IP; post-mortem human cortex homogenates (control and HD), 150 ug protein, anti-YAP, anti-14-3-3 or anti-Htt MAB2166 antibody in GAL4 immunoprecipitation buffer, 4 C 3.5 h, magnetic protein A beads overnight at 4 C; immunoblot for pan-TEAD, 14-3-3, huntingtin, pYAP

Substance: wild-type huntingtin (Htt) (from UniProt P42858 1-3142)
- binding: binds
